Some of the results follow.

The chains behind the UniProt entries cited, without tags or fusion partners.
UniProt Q6ZU65, whole entry, looked up: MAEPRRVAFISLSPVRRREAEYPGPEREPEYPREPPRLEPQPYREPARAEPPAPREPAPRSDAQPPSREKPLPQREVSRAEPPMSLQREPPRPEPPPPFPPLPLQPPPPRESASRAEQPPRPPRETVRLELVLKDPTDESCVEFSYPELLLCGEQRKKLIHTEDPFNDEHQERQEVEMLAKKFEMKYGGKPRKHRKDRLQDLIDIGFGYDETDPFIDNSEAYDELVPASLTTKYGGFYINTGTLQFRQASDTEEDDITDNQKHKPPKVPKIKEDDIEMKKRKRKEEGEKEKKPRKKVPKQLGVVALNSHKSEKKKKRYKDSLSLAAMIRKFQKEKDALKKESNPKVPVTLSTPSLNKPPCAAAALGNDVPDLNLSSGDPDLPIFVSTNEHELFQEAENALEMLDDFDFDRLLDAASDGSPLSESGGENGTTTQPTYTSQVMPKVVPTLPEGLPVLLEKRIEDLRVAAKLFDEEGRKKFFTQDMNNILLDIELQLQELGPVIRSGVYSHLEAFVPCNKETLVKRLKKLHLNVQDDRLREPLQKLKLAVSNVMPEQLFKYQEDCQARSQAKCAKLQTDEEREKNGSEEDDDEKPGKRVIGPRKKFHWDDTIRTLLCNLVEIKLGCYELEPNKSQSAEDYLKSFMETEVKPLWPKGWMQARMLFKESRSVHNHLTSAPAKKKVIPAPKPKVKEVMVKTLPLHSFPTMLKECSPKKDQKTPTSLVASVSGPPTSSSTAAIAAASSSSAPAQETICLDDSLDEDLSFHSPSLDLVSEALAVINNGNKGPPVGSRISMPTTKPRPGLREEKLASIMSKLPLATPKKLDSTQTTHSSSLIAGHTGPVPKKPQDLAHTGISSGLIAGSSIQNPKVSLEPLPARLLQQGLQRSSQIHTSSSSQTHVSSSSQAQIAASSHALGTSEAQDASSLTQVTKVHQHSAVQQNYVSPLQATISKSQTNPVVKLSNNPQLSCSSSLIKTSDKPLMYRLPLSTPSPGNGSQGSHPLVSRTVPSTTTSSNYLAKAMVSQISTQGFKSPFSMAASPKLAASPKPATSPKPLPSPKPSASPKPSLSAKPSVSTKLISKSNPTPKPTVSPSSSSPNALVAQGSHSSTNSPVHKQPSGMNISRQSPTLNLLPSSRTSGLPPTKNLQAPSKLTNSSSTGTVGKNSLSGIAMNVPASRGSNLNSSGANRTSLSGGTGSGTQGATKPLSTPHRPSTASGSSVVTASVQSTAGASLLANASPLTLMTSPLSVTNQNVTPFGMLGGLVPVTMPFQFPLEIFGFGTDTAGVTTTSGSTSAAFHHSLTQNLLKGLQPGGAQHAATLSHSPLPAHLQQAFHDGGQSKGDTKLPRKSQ
UniProt Q5T4S7, whole entry, looked up: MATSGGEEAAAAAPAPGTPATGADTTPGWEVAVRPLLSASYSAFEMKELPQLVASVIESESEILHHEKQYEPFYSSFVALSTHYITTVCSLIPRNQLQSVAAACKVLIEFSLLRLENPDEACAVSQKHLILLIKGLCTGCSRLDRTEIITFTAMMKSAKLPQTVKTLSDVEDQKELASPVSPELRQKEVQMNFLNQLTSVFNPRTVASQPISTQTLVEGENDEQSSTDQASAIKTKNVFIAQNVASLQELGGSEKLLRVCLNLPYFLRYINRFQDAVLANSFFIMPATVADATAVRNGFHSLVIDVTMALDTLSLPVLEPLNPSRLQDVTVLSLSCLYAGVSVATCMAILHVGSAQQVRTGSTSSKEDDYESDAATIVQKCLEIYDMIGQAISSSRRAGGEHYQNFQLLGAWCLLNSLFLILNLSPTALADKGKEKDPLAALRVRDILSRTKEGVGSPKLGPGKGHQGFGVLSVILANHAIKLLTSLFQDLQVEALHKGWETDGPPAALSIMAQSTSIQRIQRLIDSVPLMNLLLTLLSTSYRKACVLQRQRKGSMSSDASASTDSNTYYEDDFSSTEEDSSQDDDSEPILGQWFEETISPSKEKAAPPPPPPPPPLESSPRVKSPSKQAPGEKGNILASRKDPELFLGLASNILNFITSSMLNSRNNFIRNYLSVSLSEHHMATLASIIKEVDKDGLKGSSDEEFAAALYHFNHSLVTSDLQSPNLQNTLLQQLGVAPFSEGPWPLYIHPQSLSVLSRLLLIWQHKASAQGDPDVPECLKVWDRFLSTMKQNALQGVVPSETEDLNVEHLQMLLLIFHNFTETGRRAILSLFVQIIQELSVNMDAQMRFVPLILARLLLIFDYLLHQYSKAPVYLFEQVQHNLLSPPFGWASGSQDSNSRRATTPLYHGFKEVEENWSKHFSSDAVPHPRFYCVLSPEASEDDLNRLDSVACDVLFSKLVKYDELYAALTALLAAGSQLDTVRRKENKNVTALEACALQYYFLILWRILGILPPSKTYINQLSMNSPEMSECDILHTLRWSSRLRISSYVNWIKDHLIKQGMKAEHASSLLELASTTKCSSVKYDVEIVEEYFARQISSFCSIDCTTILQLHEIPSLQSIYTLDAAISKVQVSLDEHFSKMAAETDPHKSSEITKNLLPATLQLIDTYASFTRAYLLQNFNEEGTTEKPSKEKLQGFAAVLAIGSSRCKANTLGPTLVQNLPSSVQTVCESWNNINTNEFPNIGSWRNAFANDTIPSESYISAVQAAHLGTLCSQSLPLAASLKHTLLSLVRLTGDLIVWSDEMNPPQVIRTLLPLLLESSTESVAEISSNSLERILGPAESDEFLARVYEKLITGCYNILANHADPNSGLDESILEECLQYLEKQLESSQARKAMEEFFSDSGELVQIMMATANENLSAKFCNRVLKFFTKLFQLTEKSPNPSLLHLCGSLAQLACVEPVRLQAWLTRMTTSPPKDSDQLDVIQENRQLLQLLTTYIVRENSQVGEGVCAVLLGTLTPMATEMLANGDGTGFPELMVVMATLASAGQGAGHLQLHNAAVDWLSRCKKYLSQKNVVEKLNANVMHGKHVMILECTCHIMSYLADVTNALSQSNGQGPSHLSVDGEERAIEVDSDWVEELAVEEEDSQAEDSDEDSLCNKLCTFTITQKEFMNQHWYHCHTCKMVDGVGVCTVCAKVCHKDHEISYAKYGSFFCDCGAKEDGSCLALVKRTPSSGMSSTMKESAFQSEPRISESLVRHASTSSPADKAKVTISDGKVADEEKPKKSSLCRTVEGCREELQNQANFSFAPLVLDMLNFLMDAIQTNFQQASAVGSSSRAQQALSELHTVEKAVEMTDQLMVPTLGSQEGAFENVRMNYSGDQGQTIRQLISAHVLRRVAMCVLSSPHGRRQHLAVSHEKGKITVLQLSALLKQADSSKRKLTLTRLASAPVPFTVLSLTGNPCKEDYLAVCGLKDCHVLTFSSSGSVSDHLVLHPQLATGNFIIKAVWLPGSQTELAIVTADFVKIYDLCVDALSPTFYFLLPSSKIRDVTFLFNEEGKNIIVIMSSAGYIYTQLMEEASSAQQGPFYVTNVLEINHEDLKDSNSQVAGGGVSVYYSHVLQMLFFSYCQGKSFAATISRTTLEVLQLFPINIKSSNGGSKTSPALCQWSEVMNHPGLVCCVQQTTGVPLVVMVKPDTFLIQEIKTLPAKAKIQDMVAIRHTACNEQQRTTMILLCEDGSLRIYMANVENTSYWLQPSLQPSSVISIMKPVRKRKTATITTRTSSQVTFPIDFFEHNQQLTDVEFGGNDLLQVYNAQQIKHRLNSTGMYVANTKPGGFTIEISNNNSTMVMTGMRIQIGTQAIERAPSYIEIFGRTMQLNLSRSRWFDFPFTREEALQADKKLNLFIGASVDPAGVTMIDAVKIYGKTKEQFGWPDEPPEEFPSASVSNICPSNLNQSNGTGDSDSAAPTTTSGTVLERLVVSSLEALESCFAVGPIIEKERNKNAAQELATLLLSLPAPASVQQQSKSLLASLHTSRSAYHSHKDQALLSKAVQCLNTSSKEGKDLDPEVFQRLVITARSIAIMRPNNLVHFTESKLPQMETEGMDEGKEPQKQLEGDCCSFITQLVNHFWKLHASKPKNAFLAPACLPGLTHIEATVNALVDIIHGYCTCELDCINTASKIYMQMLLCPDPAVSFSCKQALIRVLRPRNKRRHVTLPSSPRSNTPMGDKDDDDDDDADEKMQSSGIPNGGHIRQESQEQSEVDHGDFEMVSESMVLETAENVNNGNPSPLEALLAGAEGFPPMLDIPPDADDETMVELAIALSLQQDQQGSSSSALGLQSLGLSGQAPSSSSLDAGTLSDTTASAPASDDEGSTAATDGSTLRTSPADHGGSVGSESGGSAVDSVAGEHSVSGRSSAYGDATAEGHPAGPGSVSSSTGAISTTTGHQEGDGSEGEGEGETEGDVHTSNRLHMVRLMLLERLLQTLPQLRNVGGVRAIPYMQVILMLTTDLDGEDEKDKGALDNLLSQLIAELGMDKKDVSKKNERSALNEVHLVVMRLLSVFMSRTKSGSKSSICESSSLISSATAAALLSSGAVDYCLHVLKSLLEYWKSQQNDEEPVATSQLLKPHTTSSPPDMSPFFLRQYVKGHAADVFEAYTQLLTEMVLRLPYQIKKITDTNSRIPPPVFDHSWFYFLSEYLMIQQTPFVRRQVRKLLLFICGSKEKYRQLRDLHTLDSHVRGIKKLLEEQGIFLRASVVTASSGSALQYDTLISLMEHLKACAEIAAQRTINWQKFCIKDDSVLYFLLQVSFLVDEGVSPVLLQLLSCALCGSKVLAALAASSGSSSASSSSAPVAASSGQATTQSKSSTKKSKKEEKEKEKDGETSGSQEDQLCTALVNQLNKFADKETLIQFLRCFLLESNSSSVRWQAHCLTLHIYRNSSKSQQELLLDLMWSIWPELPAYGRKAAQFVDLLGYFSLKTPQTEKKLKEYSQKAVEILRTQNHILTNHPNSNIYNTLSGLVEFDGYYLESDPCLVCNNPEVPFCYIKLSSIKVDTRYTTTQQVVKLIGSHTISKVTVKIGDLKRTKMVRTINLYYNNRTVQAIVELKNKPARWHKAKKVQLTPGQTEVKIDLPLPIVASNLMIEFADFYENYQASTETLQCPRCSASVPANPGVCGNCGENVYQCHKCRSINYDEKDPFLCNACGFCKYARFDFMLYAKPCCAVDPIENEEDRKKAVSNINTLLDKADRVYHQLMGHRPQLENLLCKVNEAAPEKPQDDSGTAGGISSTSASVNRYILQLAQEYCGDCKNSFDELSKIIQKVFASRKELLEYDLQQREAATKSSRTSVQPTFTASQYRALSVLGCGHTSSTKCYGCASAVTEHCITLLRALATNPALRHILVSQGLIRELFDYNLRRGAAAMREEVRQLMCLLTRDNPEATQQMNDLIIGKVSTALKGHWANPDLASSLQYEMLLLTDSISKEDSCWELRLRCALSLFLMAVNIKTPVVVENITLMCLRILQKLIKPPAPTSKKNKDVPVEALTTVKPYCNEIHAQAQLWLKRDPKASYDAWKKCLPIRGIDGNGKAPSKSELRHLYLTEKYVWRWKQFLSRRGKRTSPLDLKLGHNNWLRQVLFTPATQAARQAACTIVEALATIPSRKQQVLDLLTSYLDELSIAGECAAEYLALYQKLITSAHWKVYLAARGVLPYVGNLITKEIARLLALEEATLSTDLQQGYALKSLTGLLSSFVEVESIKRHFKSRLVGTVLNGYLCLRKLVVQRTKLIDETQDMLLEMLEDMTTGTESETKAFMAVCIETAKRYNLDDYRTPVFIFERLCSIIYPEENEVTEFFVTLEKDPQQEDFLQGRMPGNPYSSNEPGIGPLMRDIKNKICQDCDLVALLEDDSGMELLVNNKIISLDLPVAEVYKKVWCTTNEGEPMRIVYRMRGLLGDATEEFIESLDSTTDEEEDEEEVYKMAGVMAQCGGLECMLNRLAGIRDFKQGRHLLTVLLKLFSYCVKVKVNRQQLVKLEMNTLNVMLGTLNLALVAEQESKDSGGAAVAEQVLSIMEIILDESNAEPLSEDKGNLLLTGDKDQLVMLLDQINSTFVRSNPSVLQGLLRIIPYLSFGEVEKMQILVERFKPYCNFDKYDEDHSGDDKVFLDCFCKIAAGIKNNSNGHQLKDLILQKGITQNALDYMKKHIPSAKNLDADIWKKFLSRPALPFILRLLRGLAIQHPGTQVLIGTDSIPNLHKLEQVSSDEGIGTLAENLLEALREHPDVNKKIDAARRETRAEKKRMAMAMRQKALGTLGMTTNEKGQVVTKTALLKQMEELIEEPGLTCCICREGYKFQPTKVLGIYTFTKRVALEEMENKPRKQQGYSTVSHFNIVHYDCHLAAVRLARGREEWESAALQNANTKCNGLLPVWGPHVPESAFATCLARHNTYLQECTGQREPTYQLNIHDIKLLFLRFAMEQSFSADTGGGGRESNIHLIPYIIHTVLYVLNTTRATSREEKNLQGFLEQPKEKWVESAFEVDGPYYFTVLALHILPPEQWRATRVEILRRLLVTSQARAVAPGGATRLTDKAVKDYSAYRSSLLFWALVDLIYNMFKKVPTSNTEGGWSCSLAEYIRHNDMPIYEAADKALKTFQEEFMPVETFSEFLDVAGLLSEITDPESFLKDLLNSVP

The text below walks through data of the supplement of paper PMC10849652.

Compound in the first assay: COC(=O)N[C@@H](C)CNc1nccc(-c2cn(C(C)C)nc2-c2cc(Cl)cc(NS(C)(=O)=O)c2F)n1 [encorafenib]
Nature of the assay: log2 fold change, soluble protein after heating vs DMSO (PISA); higher = thermal stabilisation; K562 lysate, 10 uM; active = over 0.2 and 3.5 SD of the protein, either way, in both replicates (recomputed). The procedure, abridged: (§1)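 Following dounce homogenisation of K562 pellets in PBS pH 7.4 with 1 mM MgCl2, crude extract at 1 mg/mL protein was incubated for 30 min with 10 μM compound. Aliquots were then heated for 3 min over 48°C-58°C and pooled, NP-40 was added to 0.5% at 4°C, and soluble protein was recovered as the supernatant at 21,000xg for 90 min. Channel-sum-equalised TMTpro 16plex LC-MS/MS quantified this protein. Each value, from duplicates, is a log-two fold change in thermal stability relative to solvent controls.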
Turning to U2SURP isoform 2 (UniProt O15042), the log2 fold change is inactive: 0.09.
On to UBN1 (UniProt Q9NPG3), for which the log2 fold change was inactive: 0.059.
With TUBB8B (UniProt A6NNZ2), the log2 fold change is inactive: 0.039.
The same measure, in the same setting: the same measure for UBA2 (UniProt U3KQ93): inactive: -0.094.
TUBB2B (UniProt Q9BVA1): the log2 fold change is inactive: 0.108.
As to TYRO3 (UniProt Q06418), the log2 fold change was inactive: -0.142.
Take UBE2K (UniProt D6RDM7): the log2 fold change was inactive: 0.029.
With UBN2 (UniProt Q6ZU65), the log2 fold change is inactive: 0.
On the same count and under the same terms, the same measure for U2AF2 (UniProt K7ELP8): inactive: 0.028; for UBQLN1 isoform 2 (UniProt Q9UMX0): inactive: 0.223.
Regarding TYK2 (UniProt P29597), the log2 fold change was inactive: -0.092.
As for UBA52 (UniProt P62987), the log2 fold change is inactive: 0.022.
As to TUBA8 (UniProt Q9NY65), the log2 fold change is inactive: 0.029.
As for UCHL1 (UniProt P09936), the log2 fold change is inactive: -0.826.
For the target TYW5 (UniProt A2RUC4), the log2 fold change was inactive: 0.02.
The same measure, in the same setting: under TXNRD3 (UniProt Q86VQ6) stands inactive: 0.045; under UBR4 isoform 4 (UniProt Q5T4S7), inactive: -0.028.
Regarding TUBGCP5 (UniProt Q96RT8), the log2 fold change is inactive: 0.179.
Turning to TXNRD1 isoform 7 (UniProt Q16881), the log2 fold change was inactive: -0.06.

Compound in another assay: COC(=O)[C@H](CCSC)NC(=O)C1=C(C=C(C=C1)NC[C@H](CS)N)C2=CC=CC=C2
The assay is described as above. A digest of the protocol: as §1
As to U2SURP isoform 2 (UniProt O15042), the log2 fold change was inactive: 0.118.
Consider UBN1 (UniProt Q9NPG3), for which the log2 fold change was inactive: 0.088.
As for TUBB8B (UniProt A6NNZ2), the log2 fold change is inactive: 0.135.
For the target UBA2 (UniProt U3KQ93), the log2 fold change was inactive: -0.02.
For the target TUBB2B (UniProt Q9BVA1), the log2 fold change is inactive: 0.158.
On to TYRO3 (UniProt Q06418), for which the log2 fold change is inactive: -0.08.
Regarding UBE2K (UniProt D6RDM7), the log2 fold change was inactive: 0.001.
Take UBN2 (UniProt Q6ZU65): the log2 fold change is inactive: 0.164.
Still for that read-out and setting: under U2AF2 (UniProt K7ELP8) stands inactive: 0.126; under UBQLN1 isoform 2 (UniProt Q9UMX0), inactive: 0.008.
For the target TYK2 (UniProt P29597), the log2 fold change was inactive: -0.101.
Same read-out and setting: the same measure for UBA52 (UniProt P62987): inactive: -0.051; for TUBA8 (UniProt Q9NY65): inactive: 0.016; for UCHL1 (UniProt P09936): inactive: -0.477.
The same measure, in the same setting: under TYW5 (UniProt A2RUC4) stands inactive: -0.003; under TXNRD3 (UniProt Q86VQ6), inactive: 0.047; under UBR4 isoform 4 (UniProt Q5T4S7), inactive: 0.062.
Take TUBGCP5 (UniProt Q96RT8): the log2 fold change was inactive: 0.145.
Consider TXNRD1 isoform 7 (UniProt Q16881), for which the log2 fold change was inactive: 0.049.

Compound in another assay: COc1cc(Nc2ncc3c(n2)-c2ccc(Cl)cc2C(c2c(F)cccc2OC)=NC3)ccc1C(=O)O [alisertib]
The description is as above. A digest of the protocol: as §1
On to TXNDC2 (UniProt Q86VQ3), for which the log2 fold change was inactive: 0.173.
Regarding UBAP2 (UniProt Q5JV08), the log2 fold change was inactive: -0.165.
On to TUBB8B (UniProt A6NNZ2), for which the log2 fold change was inactive: 0.097.
The same measure, in the same setting: the same measure for TUBB2B (UniProt Q9BVA1): inactive: -0.045.
Same read-out and setting: under UBE2K (UniProt D6RDM7) stands inactive: 0.199.
Turning to UBN2 (UniProt Q6ZU65), the log2 fold change is inactive: -0.07.
On to U2AF2 (UniProt K7ELP8), for which the log2 fold change is inactive: 0.046.
Consider UBXN7 (UniProt H7BYF4), for which the log2 fold change was inactive: -0.044.
Take UBA52 (UniProt P62987): the log2 fold change is inactive: 0.023.
For the target TUBA8 (UniProt Q9NY65), the log2 fold change was inactive: 0.201.
As to TYW5 (UniProt A2RUC4), the log2 fold change was inactive: 0.051.
In the case of TULP3 isoform 2 (UniProt O75386), the log2 fold change was inactive: -0.036.
With TUBGCP5 (UniProt Q96RT8), the log2 fold change was inactive: -0.023.
On to UBAP2L isoform 1 (UniProt Q14157), for which the log2 fold change was inactive: 0.032.

Compound in the next assay: COc1cc2nc(-c3cc(F)ccc3O)nc(N[C@@H]3CNC[C@H]3C(C)(C)O)c2cc1OC
The assay is described as above. The procedure, abridged: as §1
Regarding TXNDC2 (UniProt Q86VQ3), the log2 fold change is inactive: 0.025.
Still for that read-out and setting: the same measure for UBN1 (UniProt Q9NPG3): inactive: 0.09; for UBE2O (UniProt K7ES11): inactive: -0.006.
TUBB8B (UniProt A6NNZ2): the log2 fold change was inactive: 0.002.
Take TUBB2B (UniProt Q9BVA1): the log2 fold change is inactive: -0.023.
On the same count and under the same terms, the same measure for UBE2L5, A0A1B0GUS4: inactive: 0.062.
For the target UBE2K (UniProt D6RDM7), the log2 fold change is inactive: 0.095.
Same read-out and setting: under U2AF2 (UniProt K7ELP8) stands inactive: 0.058.
Still for that read-out and setting: under UBXN7 (UniProt H7BYF4) stands inactive: 0.062; under UBA2 (UniProt K7ESK7), inactive: -0.001; under UBQLN1 isoform 2 (UniProt Q9UMX0), inactive: -0.051.
As for UBA52 (UniProt P62987), the log2 fold change was inactive: -0.014.
For TYW5 (UniProt A2RUC4), the log2 fold change was inactive: -0.211.
As for TXNRD3 (UniProt Q86VQ6), the log2 fold change was inactive: 0.116.
As to UBE2I (UniProt H3BQQ9), the log2 fold change is inactive: 0.15.
With UBAP2L (UniProt F8W726), the log2 fold change is inactive: 0.093.
For the target UBR4 isoform 4 (UniProt Q5T4S7), the log2 fold change was inactive: 0.064.
Take TUBGCP5 (UniProt Q96RT8): the log2 fold change is inactive: 0.025.
Regarding TXNRD1 isoform 7 (UniProt Q16881), the log2 fold change was inactive: 0.094.
